{"sequences": {"note": "Amino acid sequences for entries named in this document (tags omitted). A change or cut given only in a name is not applied to a line headed by its entry.", "UniProt P18054": "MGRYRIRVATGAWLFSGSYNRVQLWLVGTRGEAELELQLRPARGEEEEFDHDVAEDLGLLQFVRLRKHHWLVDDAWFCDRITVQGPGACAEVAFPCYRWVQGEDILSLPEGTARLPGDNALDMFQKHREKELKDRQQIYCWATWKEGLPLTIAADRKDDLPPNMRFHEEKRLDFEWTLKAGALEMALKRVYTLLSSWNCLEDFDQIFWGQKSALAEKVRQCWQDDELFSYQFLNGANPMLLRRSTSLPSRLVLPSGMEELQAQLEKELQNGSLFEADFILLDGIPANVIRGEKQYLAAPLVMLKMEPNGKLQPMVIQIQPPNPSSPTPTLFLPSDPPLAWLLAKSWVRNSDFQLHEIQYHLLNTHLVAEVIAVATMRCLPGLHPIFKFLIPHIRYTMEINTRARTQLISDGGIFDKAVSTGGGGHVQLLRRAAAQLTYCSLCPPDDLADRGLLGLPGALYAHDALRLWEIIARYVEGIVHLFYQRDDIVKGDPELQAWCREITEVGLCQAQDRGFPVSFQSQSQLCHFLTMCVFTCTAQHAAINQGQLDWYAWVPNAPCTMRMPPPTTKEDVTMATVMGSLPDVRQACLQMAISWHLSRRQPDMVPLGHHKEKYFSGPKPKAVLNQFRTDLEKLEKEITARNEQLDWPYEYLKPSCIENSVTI"}, "source": "PubChem BioAssay AID1671190", "about": "(National Center for Advancing Translational Sciences (NCATS), 2021)", "note": "The campaign covered roughly 580,000 compounds. About 6,100 (1.1%) were called active. This list was built around the results that the source calls inconclusive (neither active nor inactive); the mix of calls is not that of the screen. The call rests on the fitted dose curve; in most records, active means well fitted inhibition curve with a large enough effect; inconclusive means small, poorly fitted or top-dose-only effect, or another doubt; inactive means no such curve, though single readings can be large or run the other way. Potencies of inconclusive entries are doubtful fits and often do not repeat. On the % scale 0 is the no-effect control and ±100 the full control effect; potency means the concentration at half of the fitted maximal effect.", "data": [{"target": "Polyunsaturated fatty acid lipoxygenase ALOX12 (Homo sapiens) (UniProt P18054)", "assay": "Primary qHTS assay for inhibitors of human arachidonate 12S-lipoxygenase (ALOX12): Round 2", "conditions": "purified 12hLO, xylenol orange hydroperoxide absorbance; activity change, negative = inhibition: at 108 µM (top of the series) unless noted", "procedure,_shortened": "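Hydroperoxide product was detected by ferrous iron/xylenol orange as the 573 to 405 nm absorbance ratio. Arachidonic acid at 40 uM (final) was turned over for 30 min at room temperature by 150 nM human 12hLO, pH 7.0 Hepes buffer, after 15 min compound preincubation.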", "values": [{"molecule": "COc1cccc(C(=O)CSc2nnc(CNS(=O)(=O)c3ccc(C)cc3)n2C)c1", "Potency": "inconclusive: 100 µM [inhibitor, single point]"}, {"molecule": "CC(C)N1CCCC(CNC(=O)CCc2c[nH]c3ccccc23)C1", "note": "(stereo not drawn)", "activity change, negative = inhibition": "inactive: 43.4%"}, {"molecule": "CCCC1=Nc2cc(C(=O)NCc3ccc(OC)cc3)ccc2Sc2ccc(C)cc21", "activity change, negative = inhibition": "inactive: -24.5%"}, {"molecule": "COC(=O)c1c(N2C(=O)[C@H]3[C@@H](C2=O)[C@]2(C(=O)Nc4c(C)cccc42)N2CCC[C@@H]32)sc(C)c1C", "Potency": "inconclusive: 79.4 µM [inhibitor, partial curve, poor fit]"}, {"molecule": "CCOc1ccccc1N1CCN(CC(=O)NCCc2ccc(S(N)(=O)=O)cc2)CC1", "Potency": "inconclusive: 89.1 µM [inhibitor, partial curve, poor fit]"}, {"molecule": "Cc1ccc(CNc2nc(N)c([N+](=O)[O-])c(NCCO)n2)cc1", "activity change, negative = inhibition": "inactive: 5.06%"}, {"molecule": "Cc1nc2scc(C)n2c(=O)c1S(=O)(=O)Nc1ccc(N2CCOCC2)c(Cl)c1", "Potency": "inconclusive: 0.178 µM [inhibitor, full curve, poor fit]"}, {"molecule": "C[C@H](CO)N1C[C@H](C)[C@@H](CN(C)C(=O)Nc2cccc(F)c2)Oc2ncc(Br)cc2C1=O", "Potency": "inconclusive: 112 µM [inhibitor, single point]"}, {"molecule": "O=C(CCc1nc2ccccc2[nH]c1=O)OCc1ccc(S(=O)(=O)N2CCOCC2)cc1", "Potency": "inconclusive: 79.4 µM [inhibitor, partial curve, poor fit]"}, {"molecule": "COC(=O)c1ccc(C)c(NC(=O)c2cnccn2)c1", "activity change, negative = inhibition": "inconclusive: -48.5% [inhibitor]"}, {"molecule": "O=C(/C=C/c1ccco1)N(Cc1cccs1)C1CC1", "Potency": "active: 35.5 µM"}, {"molecule": "Cn1cc(S(=O)(=O)NCc2ccc(Cl)cc2)c(=O)n(C)c1=O", "Potency": "inconclusive: 28.2 µM [inhibitor, single point]"}, {"molecule": "Cc1cccc(CNc2nc3ccccc3nc2C)c1", "Potency": "inconclusive: 89.1 µM [inhibitor, single point]"}, {"molecule": "CCOC(=O)c1ccc(NC(=O)c2ncoc2-c2ccc(OC)cc2)cc1", "activity change, negative = inhibition": "inactive: -4.08%"}, {"molecule": "CN1CCc2c(sc3c2C(=O)NC(c2ccc(OC(=O)c4ccc(C(C)(C)C)cc4)cc2)N3)C1", "note": "(stereo not drawn)", "activity change, negative = inhibition": "inactive: 0%"}, {"molecule": "COc1ccc(Cc2c(-c3cccc(Br)c3)nc3ccc(Br)cn23)c(C)c1", "Potency": "inconclusive: 28.2 µM [inhibitor, partial curve]"}, {"molecule": "N#CN=C1CCCCCN1CC(N)=O", "Potency": "inconclusive: 158 µM [inhibitor, partial curve, poor fit]"}, {"molecule": "O=C(CN1CCN(c2ccc(O)cc2)CC1)Nc1ccc2c(c1)OCCO2", "Potency": "inconclusive: 79.4 µM [inhibitor, single point]"}, {"molecule": "Cc1ccccc1C(=O)Nc1ccc(N(C)C)c2ccccc12", "Potency": "inconclusive: 35.5 µM [inhibitor, single point]"}, {"molecule": "CC(C)N1CN(c2ccccc2)C(=S)N(c2ccccc2)C1", "Potency": "inconclusive: 100 µM [inhibitor, single point]"}, {"molecule": "CCCCOc1ccc2c(=O)c(Oc3ccc(OC)cc3)c(C(F)(F)F)oc2c1", "Potency": "inconclusive: 28.2 µM [inhibitor, partial curve]"}, {"molecule": "CCOC(=O)c1[nH]c2ccccc2c1NC(=O)CCN1CCN(C(=O)OCC)CC1", "activity change, negative = inhibition": "inactive: 0%"}, {"molecule": "CCOc1ccc(Nc2ncnc3ccc([N+](=O)[O-])cc23)cc1", "activity change, negative = inhibition": "inactive: -1.31%"}, {"molecule": "CCN(CC)CCCNC(=O)c1ccc(-c2nc(CN3CCc4ccccc43)c(C)o2)cc1", "Potency": "inconclusive: 50.1 µM [inhibitor, partial curve, poor fit]"}, {"molecule": "COC(=O)C(NC(=O)c1ccccc1)C(C)(C)SCc1ccccc1", "note": "(stereo not drawn)", "Potency": "inconclusive: 100 µM [inhibitor, single point]"}, {"molecule": "Cc1oc2cc([N+](=O)[O-])c(O)c([N+](=O)[O-])c2c1C(=O)c1ccc(Cl)cc1", "Potency": "inconclusive: 50.1 µM [inhibitor, partial curve, poor fit]"}, {"molecule": "CCCc1nc2ccc(C)cn2c1Cc1ccccc1OC", "Potency": "inconclusive: 20 µM [inhibitor, partial curve]"}, {"molecule": "CCN(CC)S(=O)(=O)c1ccc(C(=O)Nc2nn[nH]n2)cc1", "activity change, negative = inhibition": "inactive: -12.1%"}, {"molecule": "Cc1nc(C)c(-c2csc(Nc3ccc(O)cc3C)n2)s1", "Potency": "inconclusive: 0.199 µM [inhibitor, full curve, poor fit]"}, {"molecule": "c1coc(CNCc2cccc3ccccc23)c1", "Potency": "inconclusive: 0.112 µM [inhibitor, full curve, poor fit]"}, {"molecule": "CCc1nnc(NC(=O)c2cc(-c3ccccc3OC)on2)s1", "activity change, negative = inhibition": "inactive: -21.3%"}, {"molecule": "CC(=O)Nc1nc(C)c(Oc2cccc(C(F)(F)F)c2)c(=O)[nH]1", "Potency": "inconclusive: 56.2 µM [inhibitor, single point]"}, {"molecule": "COc1ccc2c(OC)c3ccoc3nc2c1OC", "Potency": "inconclusive: 35.5 µM [inhibitor, single point]"}, {"molecule": "COc1ccc2c(c1)cc(C(=O)NC(C)c1ccccc1)n2C", "note": "(stereo not drawn)", "Potency": "inconclusive: 89.1 µM [inhibitor, single point]"}, {"molecule": "O=C(CSc1ccccc1)N1CCc2onc(-c3ccc(F)c(F)c3)c2C1", "activity change, negative = inhibition": "inactive: 40.7%"}, {"molecule": "CC(=O)Nc1nn(CC(C)C)c2nc3ccc(C)cc3cc12", "Potency": "inconclusive: 11.2 µM [inhibitor, full curve, poor fit]"}, {"molecule": "Cn1c(CC(=O)Nc2ccccc2F)nnc1SCC(=O)Nc1ccc2ccccc2c1", "activity change, negative = inhibition": "inactive: -26.1%"}, {"molecule": "Cc1nc(CN2C(=O)OC3(CCN(Cc4ccccc4F)CC3)C2(C)c2ccccc2)cs1", "note": "(stereo not drawn)", "Potency": "inconclusive: 0.708 µM [inhibitor, full curve]"}, {"molecule": "CCc1ccc(C(C(=O)NC2CCCCC2)N(C(=O)c2cnccn2)c2cccs2)cc1", "note": "(stereo not drawn)", "Potency": "inconclusive: 50.1 µM [inhibitor, partial curve, poor fit]"}, {"molecule": "Cc1ccc(NC(=O)Cc2nnc(SCC(=O)c3ccc(C#N)cc3)n2C)cc1C", "activity change, negative = inhibition": "inactive: 7.18%"}, {"molecule": "O=C([C@@H]1C[C@H](F)CN1C(=O)c1ccsc1)N1CCCCC1", "activity change, negative = inhibition": "inactive: 11.4%"}, {"molecule": "COc1ccc(-c2nc3cnc(N4CCOCC4)nc3n(C)c2=O)cc1", "Potency": "inconclusive: 39.8 µM [inhibitor, partial curve, poor fit]"}, {"molecule": "O=C(NCc1cccc(OC(F)(F)F)c1)c1ccc2c(c1)S(=O)(=O)c1cc(Cl)ccc1C2=O", "Potency": "inconclusive: 39.8 µM [inhibitor, partial curve, poor fit]"}, {"molecule": "O=C1CCCC2=C1C(c1ccc(O)c(Cl)c1)C1=C(CCCC1=O)O2", "activity change, negative = inhibition": "inactive: -30.2%"}, {"molecule": "COc1ccc(C2CC(c3cccs3)=NN2c2ccc(F)cc2)cc1OC", "note": "(stereo not drawn)", "Potency": "inconclusive: 35.5 µM [inhibitor, partial curve, poor fit]"}, {"molecule": "Cc1ccc2ccccc2c1C(O)c1ncc(-c2ccc(F)cc2)[nH]1", "note": "(stereo not drawn)", "Potency": "inconclusive: 100 µM [inhibitor, partial curve, poor fit]"}, {"molecule": "O=C(NCc1cccc(C(F)(F)F)c1)C1CCCN(C(=O)c2ccc(Cl)cc2)C1", "note": "(stereo not drawn)", "activity change, negative = inhibition": "inactive: 12.3%"}, {"molecule": "O=C(O)c1ccc(S(=O)(=O)c2ccccc2C(=O)O)c([N+](=O)[O-])c1", "Potency": "inconclusive: 11.2 µM [inhibitor, partial curve, poor fit]"}, {"molecule": "COc1cc2nc(Cl)nc(N3CCCCC3)c2cc1OC", "activity change, negative = inhibition": "inactive: -5.8%"}, {"molecule": "O=C(N[C@@H](Cc1c[nH]c2ccccc12)C(=O)O)OCC1c2ccccc2-c2ccccc21", "Potency": "inconclusive: 100 µM [inhibitor, single point]"}, {"molecule": "CCCCOc1ccc(/C=C(/C#N)c2nc3ccccc3[nH]2)cc1OCC", "Potency": "inconclusive: 3.55 µM [inhibitor, full curve, poor fit]"}, {"molecule": "COC(=O)C(C)N1C(=O)S/C(=C\\c2ccccc2C)C1=O", "note": "(stereo not drawn)", "Potency": "inconclusive: 17.8 µM [inhibitor, partial curve, poor fit]"}, {"molecule": "Cc1cc2ccccc2n1-c1ccc(C(=O)N2CCC(C(=O)NCc3ccc(Cl)cc3)CC2)s1", "activity change, negative = inhibition": "inactive: -13.6%"}, {"molecule": "CCOC(=O)c1csc(NC(=O)CSc2nnc(C3CC3)n2C)n1", "activity change, negative = inhibition": "inactive: -8.01%"}, {"molecule": "CCc1ccc(C(=O)c2cn(CC(=O)Nc3cc(C)ccc3C)c3nc(C)ccc3c2=O)cc1", "Potency": "inconclusive: 126 µM [inhibitor, partial curve, poor fit]"}, {"molecule": "COc1ccc(-c2oc3ccccc3c2C#CC(C)(C)O)cc1", "Potency": "inconclusive: 44.7 µM [inhibitor, partial curve, poor fit]"}, {"molecule": "CCCC(NC(=O)c1ccc(Cl)nc1)c1ccccc1", "note": "(stereo not drawn)", "activity change, negative = inhibition": "inactive: -31.2%"}, {"molecule": "c1ccc(-c2nc3ccccc3nc2N2CCOCC2)cc1", "Potency": "inconclusive: 79.4 µM [inhibitor, partial curve, poor fit]"}, {"molecule": "CC(C)CCn1c(SCC(=O)NC2CC2)nc2cc(Cl)ccc2c1=O", "Potency": "inconclusive: 44.7 µM [inhibitor, partial curve, poor fit]"}, {"molecule": "Cc1nc2ccccc2nc1SCC(=O)N1CCC(C)CC1", "Potency": "inconclusive: 7.94 µM [inhibitor, full curve, poor fit]"}, {"molecule": "S=C(NNc1ccc2ccccc2c1)NC1CCCCC1", "Potency": "inconclusive: 39.8 µM [inhibitor, partial curve, poor fit]"}, {"molecule": "COC(=O)c1ccc(/C=C/c2ccc3cccc(OC)c3n2)cc1", "activity change, negative = inhibition": "inactive: -3.69%"}, {"molecule": "CCOC(=O)C(C)NC(=O)CNC(=O)c1cc(C)cc(C)c1", "note": "(stereo not drawn)", "Potency": "inconclusive: 25.1 µM [inhibitor, single point]"}, {"molecule": "CCc1c(C)nc2cc(-c3ccc(Cl)cc3)[nH]n2c1=O", "Potency": "inconclusive: 89.1 µM [inhibitor, single point]"}, {"molecule": "COc1ccc2cc(CN(Cc3cccs3)Cc3nnnn3Cc3ccccc3)c(=O)[nH]c2c1", "Potency": "inconclusive: 44.7 µM [inhibitor, partial curve]"}, {"molecule": "CN1C(=O)c2cccn2CC1CNC(=O)c1cn[nH]c1-c1ccccc1", "note": "(stereo not drawn)", "activity change, negative = inhibition": "inactive: 12.1%"}, {"molecule": "CSc1nnc(CNC(=O)C23CC4CC(CC(C4)C2)C3)n1Cc1ccccc1", "activity change, negative = inhibition": "inactive: -0.64%"}, {"molecule": "O=C(Cn1nc(C(=O)O)c2ccccc2c1=O)NC(c1ccccc1)c1ccccc1", "Potency": "inconclusive: 100 µM [inhibitor, single point]"}]}]}
